Among the data in PMC8008189 are binding values, retold here.

Chains of the proteins cited; added tags and fusions are not shown. Lines headed by an entry give the natural chain unless they say otherwise; changes in a name come on top.
UniProt Q9UJY4: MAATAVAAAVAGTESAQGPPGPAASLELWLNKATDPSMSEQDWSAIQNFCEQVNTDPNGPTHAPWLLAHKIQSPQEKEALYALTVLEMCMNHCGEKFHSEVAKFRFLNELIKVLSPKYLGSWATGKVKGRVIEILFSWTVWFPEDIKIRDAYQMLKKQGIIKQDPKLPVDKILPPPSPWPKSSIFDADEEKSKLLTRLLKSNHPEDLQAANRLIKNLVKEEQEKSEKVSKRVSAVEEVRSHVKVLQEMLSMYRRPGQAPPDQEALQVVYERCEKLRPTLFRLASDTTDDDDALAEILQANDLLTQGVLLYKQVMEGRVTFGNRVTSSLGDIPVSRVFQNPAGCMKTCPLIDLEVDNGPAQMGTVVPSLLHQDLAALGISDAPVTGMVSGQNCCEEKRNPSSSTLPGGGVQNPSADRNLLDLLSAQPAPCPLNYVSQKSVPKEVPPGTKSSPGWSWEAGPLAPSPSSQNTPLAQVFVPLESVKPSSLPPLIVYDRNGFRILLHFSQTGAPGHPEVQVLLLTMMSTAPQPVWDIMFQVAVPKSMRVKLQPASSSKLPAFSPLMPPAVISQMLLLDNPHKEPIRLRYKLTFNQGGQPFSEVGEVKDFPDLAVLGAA
UniProt P05771: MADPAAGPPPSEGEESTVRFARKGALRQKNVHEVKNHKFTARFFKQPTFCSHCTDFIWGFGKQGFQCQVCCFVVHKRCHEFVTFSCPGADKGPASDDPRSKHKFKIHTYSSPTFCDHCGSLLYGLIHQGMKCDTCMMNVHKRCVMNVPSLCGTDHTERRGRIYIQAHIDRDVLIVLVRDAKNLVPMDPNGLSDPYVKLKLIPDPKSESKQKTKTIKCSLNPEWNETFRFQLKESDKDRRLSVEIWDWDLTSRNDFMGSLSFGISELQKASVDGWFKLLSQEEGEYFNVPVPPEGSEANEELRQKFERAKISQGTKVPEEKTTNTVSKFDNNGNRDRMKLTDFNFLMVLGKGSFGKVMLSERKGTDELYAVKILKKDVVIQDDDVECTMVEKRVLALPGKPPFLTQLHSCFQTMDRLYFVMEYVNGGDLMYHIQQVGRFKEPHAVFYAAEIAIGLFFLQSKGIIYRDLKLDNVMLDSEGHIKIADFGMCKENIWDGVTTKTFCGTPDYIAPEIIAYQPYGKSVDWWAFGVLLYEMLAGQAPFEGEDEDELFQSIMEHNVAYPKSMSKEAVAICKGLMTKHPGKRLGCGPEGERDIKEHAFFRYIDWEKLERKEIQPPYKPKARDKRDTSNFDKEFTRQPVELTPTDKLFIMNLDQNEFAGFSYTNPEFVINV

Results are given in words; binding and its absence hold for the method and conditions named. Some entries that bind do so weakly or less than the wild type.

The target of this experiment is GGA2-PKCβII fusion protein (human) (UniProt Q9UJY4+P05771). The experiment is described as follows: co-purification with immunoblot; GGA2-PKCβII fusion protein purified from HEK 293T cells; the purified material immunoblotted for chaperones.

B1: Cdc37 (protein, UniProt Q16543 1-378)
chain: MVDYSVWDHIEVSDDEDETHPNIDTASLFRWRHQARVERMEQFQKEKEELDRGCRECKRKVAECQRKLKELEVAEGGKAELERLQAEAQQLRKEERSWEQKLEEMRKKEKSMPWNVDTLSKDGFSKSMVNTKPEKTEEDSEEVREQKHKTFVEKYEKQIKHFGMLRRWDDSQKYLSDNVHLVCEETANYLVIWCIDLEVEEKCALMEQVAHQTIVMQFILELAKSLKVDPRACFRQFFTKIKTADRQYMEGFNDELEAFKERVRGRAKLRIEKAMKEYEEEERKKRLGPGGLDPVEVYESLPEELQKCFDVKDVQMLQDAISKMDPTDAKYHMQRCIDSGLWVPNSKASEAKEGEEAGPGDPLLEAVPKTGDEKDVSV
With B1, the binding result is on record as “binds”.
